# According to PubChem BioAssay AID2685 (National Center for Advancing Translational Sciences (NCATS), 2010):
# The list shows a part of the results. The main result of the screen is listed elsewhere. These columns were measured beside it and carry no call. Most of these compounds were active or inconclusive in the main read-out, so they are no random draw. Potencies come from curve fits of mixed quality, noted in brackets.
# Test: qHTS Assay for Lipid Storage Modulators in Drosophila S3 Cells;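 as to cell number change: cells counted by Cell Tracker Red CMTPX staining in the red channel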
# Details: BODIPY lipid droplet fluorescence, 18-24 h; for cell number change: measured here: cell count max response, cells fed with added oleic acid
# Summary of the method: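 Laser-scanning cytometry quantifies lipid droplet accumulation (500–530 nm total intensity; droplet/cell object ratio) in oleic acid-fed (400 uM added) Drosophila S3 cells treated with a concentration series. 20 uM Triacsin C defined 100% inhibition.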
# [1] = measured here: lipid fluorescence (Fed channel) AC50, cells fed with added oleic acid
# [2] = measured here: cell number channel AC50, cells fed with added oleic acid
SMILES,cell number change,AC50 [1],AC50 [2]
COc1cccc(CNC(=O)CCS(=O)(=O)c2ccccc2Cl)c1,-43.9%,"25.9 µM [falling, partial curve, poor fit]",
Cc1ccccc1NC(=O)C1CCC(=O)N1 (stereo not drawn),4.99%,"0.651 µM [falling, partial curve, poor fit]",
Cc1c(OCC(=O)NC(Cc2ccc(Cl)cc2)C(=O)O)ccc2c1oc(=O)c1ccccc12 (stereo not drawn),,"6.51 µM [falling, single point]",
N#Cc1nc(COc2ccccc2)oc1N1CCCC1,-21.4%,"23.1 µM [rising, single point]",
COc1ccc2c(c1)CCCC21SC(NC(C)=O)=NN1C(C)=O (stereo not drawn),-25%,,"4.11 µM [falling, full curve, poor fit]"
COC(=O)CN(c1ccc(OC)cc1)S(=O)(=O)c1ccc(OC)c(OC)c1,,,"3.66 µM [rising, single point]"
CSCCC(NS(=O)(=O)c1ccccc1F)C(=O)NCCCn1nc(C)cc1C (stereo not drawn),1.33%,"0.0058 µM [falling, full curve, poor fit]",
CCC(=O)N/N=C(\C)CC(=O)Nc1ccc2c(c1)OCCO2,9.18%,"0.58 µM [rising, single point]",
Cc1ccc(S(=O)(=O)CC(O)COc2ccc(F)cc2Cl)cc1 (stereo not drawn),1.47%,,"0.731 µM [falling, single point]"
C/C(N)=C(/C#N)C(=O)CSc1cc(C)c2cc(C)cc(C)c2n1,-4.04%,"0.411 µM [falling, full curve]","0.411 µM [falling, partial curve, poor fit]"
CSc1nnc(NC(=O)C2CCCCC2)s1,11.2%,"0.0231 µM [falling, full curve, poor fit]",
CCCN(CC(=O)Nc1ccccc1C)C(=O)/C=C/c1ccc(OCC)c(OC)c1,-2.2%,"0.146 µM [rising, full curve, poor fit]",
O=C1CSc2ccc(C(=O)N3CCN(c4ccccn4)CC3)cc2N1,4.83%,"2.31 µM [rising, partial curve, poor fit]","1.3 µM [rising, partial curve]"
CC(=O)C1=C(c2ccccc2)NC(=O)NC1c1ccc(O)c(Cl)c1 (stereo not drawn),-3.16%,"3.26 µM [rising, full curve]",
C/C(=N\NC(=O)CSc1nc2ccccc2s1)c1ccco1,,,"2.31 µM [rising, single point]"
Cc1occc1C(=O)Nc1c(Cl)cccc1Cl,17.8%,,"0.731 µM [rising, single point]"
COc1ccc(CCC(=O)NC(C)C)cc1,61%,"29.1 µM [rising, single point]","29.1 µM [rising, single point]"
Cc1onc(-c2ccccc2)c1C(=O)OCC(=O)Nc1ccc(OC(F)(F)F)cc1,-6.2%,"0.259 µM [falling, full curve, poor fit]",
Cc1ccc(NC(=O)Nc2nnc(Cc3ccc([N+](=O)[O-])cc3)s2)cc1,-4.34%,"5.17 µM [rising, full curve, poor fit]",

SMILES,cell number change,AC50 [1],AC50 [2]
CCCOc1cccc(C2/C(=C(/O)c3ccc4c(c3)CC(C)O4)C(=O)C(=O)N2CCN2CCOCC2)c1 (stereo not drawn),23.9%,"0.731 µM [rising, full curve]",
COc1ccc(CC(=O)O/N=C(\N)c2ccc(OC)cc2)cc1,25.9%,"0.651 µM [rising, single point]",
Cn1c2ccccc2c(=O)c2c(=O)n(Cc3ccco3)c(-c3ccc(C(C)(C)C)cc3)nc21,-8.56%,"25.9 µM [falling, partial curve, poor fit]","6.51 µM [falling, single point]"
CN(CC(=O)NCc1ccccc1Cl)CC(=O)Nc1ccccc1Br,16.7%,"0.146 µM [rising, full curve]",
O=C(NCCN=C1NS(=O)(=O)c2ccccc21)c1ccc(S(=O)(=O)N2CCOCC2)cc1,6.56%,"3.26 µM [falling, partial curve]",
CCOC(=O)c1cccc(NC(=O)C2CCCN(c3nnc(N4CCCC4=O)s3)C2)c1 (stereo not drawn),10.7%,,
COc1ccc(NC(=O)CSc2nnc(-c3ccccn3)n2N)cc1,67.8%,"0.146 µM [falling, full curve, poor fit]","29.1 µM [rising, single point]"
CC(C)C(C)(C#N)NC(=O)CSc1nncn1-c1ccccc1 (stereo not drawn),93.7%,,"16.4 µM [rising, single point]"
CCOc1ccc(CN2CCN(c3ncnc4scc(-c5ccccc5)c34)CC2)cc1,41.5%,,"8.2 µM [rising, partial curve, poor fit]"
COc1ccc(-c2cc(C(=O)N(C)CC(=O)Nc3ccccc3Br)c3ccccc3n2)cc1OC,-2.64%,"18.4 µM [rising, single point]",
Fc1cccc(CNC2CCN(CCc3ccccc3)CC2)c1,-0.379%,"0.103 µM [rising, full curve, poor fit]",
O=C1c2ccc(Oc3cccc([N+](=O)[O-])c3)cc2C(=O)N1c1ccccn1,2.27%,"6.51 µM [falling, single point]","0.092 µM [falling, full curve, poor fit]"
CC(=O)Nc1ccc(NC(=O)CSc2ccc(C)cc2)cc1,-13.3%,,
COc1cccc(N=C2CC(C)(C)CC(=O)/C2=C(/O)c2ccccc2)c1,2.65%,,
COCCn1nnnc1C(c1ccc(Cl)cc1)N1CCN(C(=O)c2ccco2)CC1 (stereo not drawn),14.4%,,
CC(=O)c1cccc(NC(=O)C2CCN(C(=O)c3ccc([N+](=O)[O-])cc3)CC2)c1,-23.4%,"6.51 µM [falling, single point]",
Cc1ccc(C(=O)/C=C/Nc2ccc(S(=O)(=O)Nc3cc(C)nc(C)n3)cc2)cc1,17.7%,"1.46 µM [rising, partial curve]",
O=C(Nc1cccc(S(=O)(=O)N2CCCCC2)c1)C1CCN(C(=O)c2ccc(Cl)cc2)CC1,-8.4%,,"1.3 µM [rising, single point]"

# An excerpt from above in order of formula weight, rising:
SMILES,cell number change,AC50 [1],AC50 [2]
CC(=O)Nc1ccc(NC(=O)CSc2ccc(C)cc2)cc1,-13.3%,,
CC(C)C(C)(C#N)NC(=O)CSc1nncn1-c1ccccc1 (stereo not drawn),93.7%,,"16.4 µM [rising, single point]"
CC(=O)c1cccc(NC(=O)C2CCN(C(=O)c3ccc([N+](=O)[O-])cc3)CC2)c1,-23.4%,"6.51 µM [falling, single point]",
